Reference: PubChem BioAssay AID1259405 (NCATS, 2018)
Assay: 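Silenced genes that increase secreted GFP made by CHO cells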 (primary screen). Cell system: Chinese hamster CHO-K1 ovary cells with stable secreted eGFP expression. Reagents: single siRNA against mouse genes, 0.8 pmol siRNA per well (2 µl of 400 nM stock). Timing: 3 days. Detection: 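Percent of the per-plate non-targeting control median for intracellular GFP per well by laser scanning cytometry and for cell viability by ATP luminescence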. Direction: GFP, % of control: higher = more GFP per well, higher productivity; viability (ATP), % of control: higher = more viable cells (more ATP). Call rule: 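Called active when intracellular GFP, relative to negative control, is at or above 120%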.
This is a random part of about 50,000 reagents. Over the whole deposit, about 4,000 (8%) are marked active. 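Mouse siRNA library applied to hamster cells; one well for each siRNA.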 Reagents against one gene are numbered here. Reagent sequences are not shown.

gene | reagent no. | GFP, % of control | viability (ATP), % of control | Call
Brca2 | 1 | 123 | 123 | active
Brca2 | 2 | 82.4 | 55.1 | inactive
Brca2 | 3 | 64.2 | 75.9 | inactive
Pou2f2 | 1 | 71.5 | 88.4 | inactive
Pou2f2 | 2 | 153 | 112 | active
Pou2f2 | 3 | 75.2 | 71.8 | inactive
4632433K11Rik | 1 | 92 | 99.5 | inactive
4632433K11Rik | 2 | 76.7 | 65.2 | inactive
4632433K11Rik | 3 | 123 | 66.3 | active
Pex26 | 1 | 98 | 109 | inactive
Pex26 | 2 | 61.3 | 48 | inactive
Pex26 | 3 | 70.9 | 109 | inactive
Rusc2 | 1 | 45.8 | 40 | inactive
Rusc2 | 2 | 146 | 53.2 | active
Rusc2 | 3 | 74 | 78.6 | inactive
Irf5 | 1 | 43.9 | 45.3 | inactive
Irf5 | 2 | 80.9 | 59.3 | inactive
Irf5 | 3 | 111 | 96 | inactive
Prl8a8 | 1 | 81 | 82.9 | inactive
Prl8a8 | 2 | 66.9 | 65.7 | inactive
Prl8a8 | 3 | 51.2 | 70.9 | inactive
Sharpin | 1 | 91.9 | 99.2 | inactive
Sharpin | 2 | 89.9 | 89.8 | inactive
Pm20d2 | 1 | 86.4 | 76.9 | inactive
Pm20d2 | 2 | 55.3 | 44.7 | inactive
Pm20d2 | 3 | 81.2 | 52.6 | inactive
Pgd | 1 | 97.1 | 83.4 | inactive
Pgd | 2 | 96.1 | 71.8 | inactive
Pgd | 3 | 88 | 63.9 | inactive
Myh7 | 1 | 50.8 | 42.7 | inactive
Myh7 | 2 | 78.6 | 91.2 | inactive
Mrgprf | 1 | 64.8 | 71.7 | inactive
Mrgprf | 2 | 94.5 | 85.3 | inactive
Mrgprf | 3 | 64.5 | 61 | inactive
Spata31 | 1 | 115 | 67.2 | inactive
Spata31 | 2 | 92.5 | 85.2 | inactive
Spata31 | 3 | 118 | 139 | inactive
Srst | 1 | 69.8 | 86 | inactive
Srst | 2 | 93.8 | 125 | inactive
Srst | 3 | 47.1 | 42.6 | inactive
Zcwpw1 | 1 | 63.7 | 86.4 | inactive
Zcwpw1 | 2 | 91.8 | 88.1 | inactive
Zcwpw1 | 3 | 84.9 | 89.6 | inactive
Kctd5 | 1 | 78.5 | 136 | inactive
Kctd5 | 2 | 95.2 | 53.8 | inactive
Fam114a2 | 1 | 73.5 | 65.2 | inactive
Fam114a2 | 2 | 122 | 88.9 | active
Fam114a2 | 3 | 72.9 | 72.2 | inactive
Banf1 | 1 | 30 | 43.5 | inactive
Banf1 | 2 | 47.9 | 59.3 | inactive
Banf1 | 3 | 162 | 99.5 | active
Aqp1 | 1 | 86.3 | 84.5 | inactive
Aqp1 | 2 | 108 | 72.1 | inactive
Aqp1 | 3 | 102 | 84.4 | inactive
Zfp119a | 1 | 42.3 | 43.7 | inactive
Zfp119a | 2 | 67.5 | 68.5 | inactive
Zfp119a | 3 | 31.5 | 43.3 | inactive
Nup210 | 1 | 77.8 | 59.7 | inactive
Nup210 | 2 | 57.6 | 78.7 | inactive
Lrrn4cl | 1 | 37.2 | 46 | inactive
Lrrn4cl | 2 | 63.1 | 72.7 | inactive
Lrrn4cl | 3 | 60.8 | 71.4 | inactive
Moxd1 | 1 | 109 | 74.4 | inactive
Moxd1 | 2 | 104 | 100 | inactive
Moxd1 | 3 | 43.5 | 41.6 | inactive
Bub1b | 1 | 109 | 64.1 | inactive
Or4c3d | 1 | 105 | 72 | inactive
Or4c3d | 2 | 120 | 70 | active
Or4c3d | 3 | 56.5 | 80.1 | inactive
Or4c58 | 1 | 90.8 | 55.3 | inactive
Or4c58 | 2 | 73 | 68.9 | inactive
Or4c58 | 3 | 84.9 | 102 | inactive
Vmn1r40 | 1 | 59.4 | 78.6 | inactive
Vmn1r40 | 2 | 30.5 | 34.8 | inactive
Vmn1r40 | 3 | 59.7 | 73.8 | inactive
Npas3 | 1 | 60.4 | 57.7 | inactive
Npas3 | 2 | 88.7 | 103 | inactive
Npas3 | 3 | 91.5 | 71.2 | inactive
Retnla | 1 | 84.8 | 85.2 | inactive
Retnla | 2 | 54.5 | 51.1 | inactive
Retnla | 3 | 66.4 | 82.1 | inactive
Tent5b | 1 | 127 | 60.1 | active
Tent5b | 2 | 83.2 | 72.2 | inactive
Tent5b | 3 | 75.1 | 96.7 | inactive
Cers5 | 1 | 43.8 | 65.6 | inactive
Cers5 | 2 | 150 | 113 | active
Cers5 | 3 | 103 | 97.1 | inactive
Armc10 | 1 | 73.9 | 33.8 | inactive
Armc10 | 2 | 83.1 | 83.5 | inactive
Armc10 | 3 | 78.2 | 77.6 | inactive
Ereg | 1 | 54.1 | 74.8 | inactive
Ereg | 2 | 77.8 | 51.7 | inactive
Ereg | 3 | 92.6 | 107 | inactive
Proser2 | 1 | 110 | 66.5 | inactive
Proser2 | 2 | 77.6 | 83.5 | inactive
Proser2 | 3 | 95.7 | 119 | inactive
Oxct2a | 1 | 112 | 64.4 | inactive
Oxct2a | 2 | 83.9 | 85.4 | inactive
Oxct2a | 3 | 54.5 | 52.3 | inactive
Adam10 | 1 | 74.9 | 58.3 | inactive
Adam10 | 2 | 69.9 | 68.5 | inactive
Adam10 | 3 | 72.1 | 68.5 | inactive
Entpd4 | 1 | 64.1 | 81.2 | inactive
Entpd4 | 2 | 107 | 77.5 | inactive
Entpd4 | 3 | 98.1 | 82 | inactive
Gpr61 | 1 | 82.4 | 89.6 | inactive
Gpr61 | 2 | 94.8 | 84.3 | inactive
Gpr61 | 3 | 68.9 | 69.5 | inactive

Active calls, among the entries above:
gene | reagent no. | GFP, % of control | viability (ATP), % of control | Call
Brca2 | 1 | 123 | 123 | active
Pou2f2 | 2 | 153 | 112 | active
4632433K11Rik | 3 | 123 | 66.3 | active
Rusc2 | 2 | 146 | 53.2 | active
Fam114a2 | 2 | 122 | 88.9 | active
Banf1 | 3 | 162 | 99.5 | active
Or4c3d | 2 | 120 | 70 | active
Tent5b | 1 | 127 | 60.1 | active
Cers5 | 2 | 150 | 113 | active
